Measurements published in patent publication US7361664B2, “Vitamin D receptor antagonists and related compositions and methods of use” (The United States of America as represented by the …, priority 2001, dated 2008).

Experiment: Serum 25-OH-D3 and calcitriol levels on vitamin D diets
Format: in vivo, athymic mice

For vitamin D, the “serum 25-OH-D3” value (diet with 4 mg/kg vitamin D) was “approx. 34 pg/ml”, the serum calcitriol (diet with 4 mg/kg vitamin D) was “approx. 370 pg/ml” and the “serum 25-OH-D3” value (diet with 40 mg/kg vitamin D) was “approx. 73 pg/ml”. For the same substance, the serum calcitriol (diet with 40 mg/kg vitamin D) was “approx. 70 pg/ml” and the “serum 25-OH-D3” value (normal diet with 6.6 mg/kg vitamin D) was “approx. 18 pg/ml”.
